The target in one experiment is Histone deacetylase 3 (Homo sapiens, UniProt O15379). Briefly: Inhibition of recombinant human HDAC3 after 60 mins by fluorescence assay.
For experiment [1], the target named is T1, Protein deacetylase HDAC6 (Homo sapiens, UniProt Q9UBN7).
T1 sequence (Q9UBN7 whole entry): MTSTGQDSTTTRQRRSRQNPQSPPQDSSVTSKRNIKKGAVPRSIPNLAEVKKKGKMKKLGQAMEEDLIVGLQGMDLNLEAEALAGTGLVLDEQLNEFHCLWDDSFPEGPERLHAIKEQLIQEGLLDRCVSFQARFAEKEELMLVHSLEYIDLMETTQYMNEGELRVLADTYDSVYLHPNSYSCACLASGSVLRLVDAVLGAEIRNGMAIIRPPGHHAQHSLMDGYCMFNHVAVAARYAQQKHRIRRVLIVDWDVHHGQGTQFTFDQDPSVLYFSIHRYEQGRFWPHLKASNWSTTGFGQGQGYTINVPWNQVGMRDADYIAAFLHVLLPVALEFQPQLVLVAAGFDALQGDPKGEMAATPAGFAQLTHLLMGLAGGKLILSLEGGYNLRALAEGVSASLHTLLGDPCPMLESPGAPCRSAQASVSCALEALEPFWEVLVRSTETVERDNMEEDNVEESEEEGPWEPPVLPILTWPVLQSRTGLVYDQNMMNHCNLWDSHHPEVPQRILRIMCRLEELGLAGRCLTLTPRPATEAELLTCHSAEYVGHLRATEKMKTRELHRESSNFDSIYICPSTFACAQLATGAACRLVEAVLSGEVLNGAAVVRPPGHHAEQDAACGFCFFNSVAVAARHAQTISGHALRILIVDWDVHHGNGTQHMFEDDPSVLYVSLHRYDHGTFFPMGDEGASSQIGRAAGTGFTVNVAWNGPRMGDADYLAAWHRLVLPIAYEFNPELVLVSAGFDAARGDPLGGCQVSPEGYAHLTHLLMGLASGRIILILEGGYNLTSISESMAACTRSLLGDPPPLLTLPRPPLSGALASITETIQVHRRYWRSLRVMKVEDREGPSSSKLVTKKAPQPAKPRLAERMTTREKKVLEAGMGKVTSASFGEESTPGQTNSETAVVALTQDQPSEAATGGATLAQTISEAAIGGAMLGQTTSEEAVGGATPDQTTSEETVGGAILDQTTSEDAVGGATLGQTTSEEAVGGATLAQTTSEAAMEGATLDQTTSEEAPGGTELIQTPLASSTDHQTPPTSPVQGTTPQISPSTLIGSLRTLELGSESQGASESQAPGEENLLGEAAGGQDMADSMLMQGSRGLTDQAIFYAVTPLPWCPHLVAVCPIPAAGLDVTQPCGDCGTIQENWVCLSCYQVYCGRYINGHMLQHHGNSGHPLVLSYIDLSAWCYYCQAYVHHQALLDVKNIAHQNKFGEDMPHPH
Briefly: Inhibition of recombinant human HDAC6 after 60 mins by fluorescence assay.

Chains of the proteins cited; added tags and fusions are not shown. Lines headed by an entry give the natural chain unless they say otherwise; changes in a name come on top.
UniProt O15379: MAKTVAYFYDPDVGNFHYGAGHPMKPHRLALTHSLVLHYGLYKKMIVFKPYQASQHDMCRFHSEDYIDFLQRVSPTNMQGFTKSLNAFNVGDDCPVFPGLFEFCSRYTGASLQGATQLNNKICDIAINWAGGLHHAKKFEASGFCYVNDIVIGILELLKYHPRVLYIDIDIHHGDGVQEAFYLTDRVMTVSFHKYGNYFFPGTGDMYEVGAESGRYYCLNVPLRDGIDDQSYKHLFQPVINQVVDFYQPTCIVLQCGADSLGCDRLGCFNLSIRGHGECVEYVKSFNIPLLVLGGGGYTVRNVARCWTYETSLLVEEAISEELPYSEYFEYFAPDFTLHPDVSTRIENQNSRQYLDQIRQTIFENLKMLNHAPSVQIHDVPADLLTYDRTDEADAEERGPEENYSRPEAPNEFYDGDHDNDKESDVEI

pIC50: −log10 of the molar value.

As for `CCCCCCCC(=O)SCC/C=C/[C@@H]1CC(=O)NCc2nc(cs2)C2=N[C@@](C)(CS2)C(=O)N[C@@H](C(C)C)C(=O)O1` [LARGAZOLE], the pIC50 (usually the IC50 on a negative log10 scale, so that one unit is a factor of ten) at Histone deacetylase 3 was 6.07; in experiment [1], 5.73.

The record behind these values is ChEMBL document CHEMBL3621100, “Discovery of Novel Class I Histone Deacetylase Inhibitors with Promising in Vitro and in Vivo Antitumor Activities” (J Med Chem, 2015).
